The results in this text go back to patent publication US20090263375A1.

Protein sequences, listed by entry. Tags and fused reporters are not part of them.
UniProt Q99755: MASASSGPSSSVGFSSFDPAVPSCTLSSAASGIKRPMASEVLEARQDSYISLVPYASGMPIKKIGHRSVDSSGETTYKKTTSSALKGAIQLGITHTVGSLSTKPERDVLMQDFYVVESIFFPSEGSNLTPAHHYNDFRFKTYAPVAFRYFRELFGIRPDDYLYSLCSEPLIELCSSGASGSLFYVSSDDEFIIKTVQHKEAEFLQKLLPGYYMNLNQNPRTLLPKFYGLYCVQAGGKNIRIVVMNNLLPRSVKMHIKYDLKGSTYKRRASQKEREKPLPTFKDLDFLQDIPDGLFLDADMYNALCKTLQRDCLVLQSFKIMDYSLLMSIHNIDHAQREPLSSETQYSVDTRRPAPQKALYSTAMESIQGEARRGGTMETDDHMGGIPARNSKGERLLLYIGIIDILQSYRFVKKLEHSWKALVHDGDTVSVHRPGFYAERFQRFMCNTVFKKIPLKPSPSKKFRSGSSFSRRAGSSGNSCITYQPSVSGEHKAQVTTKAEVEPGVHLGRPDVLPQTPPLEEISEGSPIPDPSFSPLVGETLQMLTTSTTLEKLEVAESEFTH

These are yes or no findings as the source states them, for the method shown. In cells and extracts the contact can be indirect. Some binding calls cover weakened binding; strength is not graded here.

The target in the test is T1, endogenous Star-PAP (human) (UniProt Q9H6E5).
T1 sequence: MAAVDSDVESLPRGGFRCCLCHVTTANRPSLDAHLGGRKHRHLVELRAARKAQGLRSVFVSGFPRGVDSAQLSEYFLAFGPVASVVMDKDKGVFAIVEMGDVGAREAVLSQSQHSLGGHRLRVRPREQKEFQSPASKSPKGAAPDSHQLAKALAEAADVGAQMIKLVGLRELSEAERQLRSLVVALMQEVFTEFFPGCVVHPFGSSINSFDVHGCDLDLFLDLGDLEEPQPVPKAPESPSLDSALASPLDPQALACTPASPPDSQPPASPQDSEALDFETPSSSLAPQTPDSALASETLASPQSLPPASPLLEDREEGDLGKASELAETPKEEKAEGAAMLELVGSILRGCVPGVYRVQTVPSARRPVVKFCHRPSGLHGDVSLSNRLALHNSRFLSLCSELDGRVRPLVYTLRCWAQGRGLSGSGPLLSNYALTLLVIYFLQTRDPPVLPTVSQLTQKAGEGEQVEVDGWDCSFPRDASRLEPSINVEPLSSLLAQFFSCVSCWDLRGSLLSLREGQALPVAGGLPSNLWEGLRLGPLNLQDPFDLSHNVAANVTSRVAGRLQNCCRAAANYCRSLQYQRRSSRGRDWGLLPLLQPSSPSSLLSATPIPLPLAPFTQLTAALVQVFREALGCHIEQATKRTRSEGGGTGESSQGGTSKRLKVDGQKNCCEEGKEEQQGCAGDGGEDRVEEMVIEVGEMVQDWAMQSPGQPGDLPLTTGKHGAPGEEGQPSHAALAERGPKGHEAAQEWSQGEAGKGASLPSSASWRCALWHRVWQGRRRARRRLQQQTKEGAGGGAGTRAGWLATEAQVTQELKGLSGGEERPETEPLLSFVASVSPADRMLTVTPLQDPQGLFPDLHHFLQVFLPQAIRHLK
Description: co-immunoprecipitation, western blot. Background: A western blot detects proteins with antibodies after separation by electrophoresis.

For “HA-PIPKIα (from UniProt Q99755 1-562) (enzyme)”, the binding entry was “binds”.
